Results taken from US5807688A (priority 1995, dated 1998).
For part of these data: The name of at least one read-out is uncertain. For part of these data: At least one structure is not confirmed: it was looked up by name or label, or the drawing left a doubt.

Key:
[1] = target: monoclonal antibody CF7 (IgG2a), Appendix line 14, elicited to TSA (7.2); type: binding, mouse; details: inhibition elisa; read-out: aK (ELISA) (converted)
[2] = target: monoclonal antibody CF6 (IgG1), Appendix line 13, elicited to TSA (7.2); type: binding, mouse; details: inhibition elisa; read-out: aK (ELISA) (converted)
[3] = target: McPC603, mouse monoclonal antibody; details: read-out: affinity constant (converted); cited from earlier work

SMILES | Kd [1] | Kd [2] | Kd [3]
CCOP(=O)(Cc1ccc(NC(=O)CCCC(=O)ON2C(=O)CCC2=O)cc1)Nc1cc(C(=O)O)cc(C(=O)O)c1 (stereo not drawn) [7.2, Ethyl N-[(3,5-dicarboxy)phenyl]-P-{N-[5'-(2",5"-dioxo-1"pyrrolidinyl)-oxy-1',5'-dioxopentyl]-4-aminophenylmethy}phosphonamidate] | 192 nM | 2.63 nM | 
C[N+](C)(C)CCOP(=O)(O)O [phosphorylcholine] |  |  | 5000 nM
